Data as given in PubChem BioAssay AID504774 (Drosophila RNAi Screening Center, 2011)
The deposit covers about 23,000 reagents; below is an unselected part of those that have a named target and a result. 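Values are quantile-normalised luminescence on an arbitrary scale; higher means more cells surviving MMS.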 The numbers tell different reagents against one gene apart. A plus sign joins genes that one reagent is predicted to hit. Not all columns of the deposit are shown.

Assay: 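Genes required for cells to withstand methyl methanesulphonate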 (primary screen)
Cell system: Drosophila Kc167 cells
Reagent: long dsRNA against Drosophila genes, about 0.25 µg dsRNA per well
Timing: about 6 days: 3 days knock-down, then 3 days with or without MMS
Challenge: methyl methanesulphonate 0.004% (w/v) for 3 days after knock-down
Measurement: 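ATP-dependent luminescence as a measure of live cells in MMS-exposed wells, quantile normalised within each plate, with replicate values also given as a mean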
Scale: mean viability with MMS and viability with MMS: higher = more surviving cells after MMS

Target gene,reagent no.,mean viability with MMS,"viability with MMS, replicate 1"
Ama (Amalgam),1,3.54e6,4.07e6
Surf1 (Surfeit 1),1,3.34e6,3.68e6
Surf1 (Surfeit 1),2,3.69e6,4.15e6
vir-1 (virus-induced RNA 1),1,3.56e6,4.05e6
vir-1 (virus-induced RNA 1),2,3.36e6,3.75e6
bb8 (big bubble 8),1,3.53e6,3.99e6
Or85a (Odorant receptor 85a),1,3.56e6,3.95e6
CG31784,1,3.59e6,4.15e6
CG2519,1,3.53e6,4.06e6
ND-B14.5B (NADH dehydrogenase (ubiquinone) B14.5 B subunit),1,3.89e6,4.25e6
Pur-alpha (Purine-rich binding protein-alpha),1,3.66e6,4.06e6
CG7328,1,3.50e6,3.97e6
CG42553,1,3.53e6,4.02e6
CG9312,1,3.54e6,4.05e6
S6kII (Ribosomal protein S6 kinase II),1,3.63e6,4.10e6
CG31206,1,3.59e6,4.06e6
Gem4b + Gem4c,1,3.53e6,3.99e6
Rai1 (Rat1 Interacting Protein 1),1,3.51e6,4.11e6
CG16753,1,3.50e6,3.93e6
Vamp7 (Vesicle-associated membrane protein 7),1,3.45e6,3.90e6
Jon25Biii (Jonah 25Biii),1,3.56e6,4.08e6
CG14708,1,3.67e6,4.12e6
CG14260,1,3.54e6,4.08e6
Cpr92A (Cuticular protein 92A),1,3.63e6,4.08e6
TTLL4A (Tubulin tyrosine ligase-like 4A),1,3.52e6,3.91e6
Prestin,1,3.42e6,3.81e6
Cpr64Ac (Cuticular protein 64Ac),1,3.55e6,4.01e6
CG17199,1,3.56e6,4.10e6
alpha-Est9 (alpha-Esterase-9),1,3.58e6,4.09e6
Herc4 (HECT and RLD domain containing E3 ubiquitin ligase 4),1,3.64e6,4.09e6
CG13901,1,3.56e6,4.04e6
abd-A (abdominal A),1,3.32e6,3.83e6
abd-A (abdominal A),2,2.52e6,3.43e6
abd-A (abdominal A),3,3.73e6,4.27e6
CG4854,1,3.54e6,4.17e6
CG8668,1,3.57e6,4.10e6
CG12609,1,3.39e6,3.84e6
kmr (kramer),1,3.72e6,4.16e6
kmr (kramer),2,3.59e6,4.22e6
kmr (kramer),3,3.43e6,3.65e6
kmr (kramer),4,3.51e6,4.07e6
CG13488,1,3.43e6,3.80e6
yellow-h,1,3.58e6,4.08e6
ghi (ghiberti),1,3.48e6,3.95e6
Smurf (SMAD specific E3 ubiquitin protein ligase),1,3.52e6,4.07e6
AMPKalpha (AMP-activated protein kinase alpha subunit),1,3.30e6,3.73e6
CG3546,1,3.38e6,3.87e6
Prosap,1,3.57e6,4.00e6
Prosap,2,3.68e6,4.19e6
ENGase (Endo-beta-N-acetylglucosaminidase),1,1.93e6,4.08e6
ENGase (Endo-beta-N-acetylglucosaminidase),2,3.49e6,3.95e6
CG5577,1,3.58e6,4.15e6
ppan (peter pan),1,3.49e6,3.96e6
CG9263,1,3.74e6,4.20e6
pros (prospero),1,3.64e6,4.06e6
pros (prospero),2,3.55e6,4.01e6
pros (prospero),3,3.39e6,3.85e6
CG9377,1,3.43e6,3.97e6
viaf (viral IAP-associated factor),1,3.63e6,4.03e6
Apoltp (Apolipoprotein lipid transfer particle),1,3.57e6,4.19e6
CG13589,1,3.58e6,4.17e6
CG7366,1,1.96e6,4.19e6
CG32650,1,3.40e6,3.67e6
dgt5 (dim gamma-tubulin 5),1,3.45e6,3.84e6
vkg (viking),1,3.50e6,3.88e6
CG13325,1,3.37e6,3.80e6
Vdup1 (Vitamin D[[3]] up-regulated protein 1),1,3.57e6,4.01e6
"SmydA-4 (SET and MYND domain containing, arthropod-specific, member 4)",1,3.63e6,4.04e6
"SmydA-4 (SET and MYND domain containing, arthropod-specific, member 4)",2,3.72e6,4.22e6
